Measured data: PubChem BioAssay AID504808 (Drosophila RNAi Screening Center, 2011)
In all, the deposit lists about 21,000 reagents; below is an unselected part of those that have a named target and a result. Over the whole deposit, 18 (0.084%) are marked active. 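Raw counts without plate normalisation, one of two replicates; the ratio scores behind the calls were not deposited.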 Entries without a mark were called inactive. The numbers tell different reagents against one gene apart. Names joined by + are all predicted targets of the reagent. Reagent sequences are not shown. Not stated in the record: the amount of reagent, the time to read-out.

- Screen: 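Genes whose loss lifts activity of an E2F-responsive reporter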 (primary screen)
- Cell system: Drosophila S2 cells
- Reagent: long dsRNA against Drosophila genes
- Detection: 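Dual luciferase plate measurements; E2F-specific signal taken as firefly over Renilla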
- Reading the numbers: E2F firefly: higher = more E2F reporter activity; Renilla normaliser: higher = more normaliser reporter signal
- Hit rule: 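a knock-down counted as active when the firefly/Renilla E2F signal rose above 50%, a threshold chosen arbitrarily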

Fkbp39 (FK506-binding protein 39kD) showed E2F firefly, rep 1 = 62613; Renilla normaliser, rep 1 = 3295. After knock-down of Polr2C (RNA polymerase II subunit C), the record shows E2F firefly, rep 1 = 60009; Renilla normaliser, rep 1 = 3640. Depletion of Nnf1a resulted in: E2F firefly, rep 1 = 91074; Renilla normaliser, rep 1 = 4197. Against del (deadlock), the entry reads E2F firefly, rep 1 = 89163; Renilla normaliser, rep 1 = 3329. CG15336 scored E2F firefly, rep 1 = 1.22e5; Renilla normaliser, rep 1 = 5363. ZAP3 #1 showed E2F firefly, rep 1 = 7663; Renilla normaliser, rep 1 = 836.

ZAP3 #2 gave E2F firefly, rep 1 = 1.32e5; Renilla normaliser, rep 1 = 6685. After knock-down of ZAP3 #3, the record shows E2F firefly, rep 1 = 1.25e5; Renilla normaliser, rep 1 = 6855. RagC-D (Ras-related GTP binding C/D) showed E2F firefly, rep 1 = 3829; Renilla normaliser, rep 1 = 52. Depletion of CG1344 gave: E2F firefly, rep 1 = 71449; Renilla normaliser, rep 1 = 2977. After knock-down of Gem4b + Gem4c + Glos the results were E2F firefly, rep 1 = 1.16e5; Renilla normaliser, rep 1 = 5346. For CG3491, the values are E2F firefly, rep 1 = 1.03e5; Renilla normaliser, rep 1 = 4426.

pain (painless) gave E2F firefly, rep 1 = 92716; Renilla normaliser, rep 1 = 3456. After knock-down of CG32365 #1, the screen gave E2F firefly, rep 1 = 1.03e5; Renilla normaliser, rep 1 = 4305. CG32365 #2 gave E2F firefly, rep 1 = 90377; Renilla normaliser, rep 1 = 3967. CG32365 #3 gave E2F firefly, rep 1 = 94469; Renilla normaliser, rep 1 = 4368. For klu (klumpfuss), the values are E2F firefly, rep 1 = 1.21e5; Renilla normaliser, rep 1 = 8193. After knock-down of CG5191 #1, the screen gave E2F firefly, rep 1 = 66471; Renilla normaliser, rep 1 = 3340.

CG5191 #2 showed E2F firefly, rep 1 = 1.41e5; Renilla normaliser, rep 1 = 7197. For cerv (cervantes), the values are E2F firefly, rep 1 = 1.56e5; Renilla normaliser, rep 1 = 7077. With knock-down of zen (zerknullt), the screen gave E2F firefly, rep 1 = 1.35e5; Renilla normaliser, rep 1 = 5606. For CG6843 the deposit lists E2F firefly, rep 1 = 1.55e5; Renilla normaliser, rep 1 = 6098. DJ-1alpha scored E2F firefly, rep 1 = 92181; Renilla normaliser, rep 1 = 4476. After knock-down of rdog (red dog mine), the screen gave E2F firefly, rep 1 = 1879; Renilla normaliser, rep 1 = 856.

Knock-down of CG15800 gave: E2F firefly, rep 1 = 1.04e5; Renilla normaliser, rep 1 = 4642. Silencing of Nup153 (Nucleoporin 153kD) gave: E2F firefly, rep 1 = 86584; Renilla normaliser, rep 1 = 124. Silencing of CG15124 came out at: E2F firefly, rep 1 = 1.55e5; Renilla normaliser, rep 1 = 5208. Knock-down of PGRP-SB1 (Peptidoglycan recognition protein SB1) gave: E2F firefly, rep 1 = 1.48e5; Renilla normaliser, rep 1 = 7825. For chm (chameau) the deposit lists E2F firefly, rep 1 = 94416; Renilla normaliser, rep 1 = 4764. Silencing of tei (teiresias) came out at: E2F firefly, rep 1 = 89991; Renilla normaliser, rep 1 = 4428.

For mtTFB2 (mitochondrial transcription factor B2), the values are E2F firefly, rep 1 = 1.29e5; Renilla normaliser, rep 1 = 5891. Silencing of Grl62c (Gustatory receptor-like 62c) resulted in: E2F firefly, rep 1 = 1.33e5; Renilla normaliser, rep 1 = 3901. After knock-down of CG17085 (retired record) #1, the screen gave E2F firefly, rep 1 = 1.57e5; Renilla normaliser, rep 1 = 4689. With knock-down of CG17085 (retired record) #2, the record shows E2F firefly, rep 1 = 1.59e5; Renilla normaliser, rep 1 = 5233. mRpS10 (mitochondrial ribosomal protein S10) gave E2F firefly, rep 1 = 1.09e5; Renilla normaliser, rep 1 = 5878. Silencing of Samuel #1 gave: E2F firefly, rep 1 = 1.34e5; Renilla normaliser, rep 1 = 5132.

After knock-down of Samuel #2, the screen gave E2F firefly, rep 1 = 1.48e5; Renilla normaliser, rep 1 = 4370. For Samuel #3 the deposit lists E2F firefly, rep 1 = 1.61e5; Renilla normaliser, rep 1 = 5280.
